Patent publication US20140256613A1
These are yes or no findings as the source states them, for the method shown. Some results given as binding are weak or reduced against the parent protein; the word gives no strength.

Chains of the proteins cited; added tags and fusions are not shown. Lines headed by an entry give the natural chain unless they say otherwise; changes in a name come on top.
UniProt Q8IWL2: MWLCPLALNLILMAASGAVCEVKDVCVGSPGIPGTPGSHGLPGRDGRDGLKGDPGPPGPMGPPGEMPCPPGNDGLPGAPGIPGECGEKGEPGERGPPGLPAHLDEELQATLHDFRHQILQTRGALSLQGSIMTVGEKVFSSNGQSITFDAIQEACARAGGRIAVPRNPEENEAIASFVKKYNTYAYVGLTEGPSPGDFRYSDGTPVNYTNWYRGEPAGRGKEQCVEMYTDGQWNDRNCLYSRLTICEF

Biological target: full-length human TLR4 expressed as fusion protein with GAL4 (pTLR4) (human)
Test: mammalian two-hybrid assay and confocal co-localization in co-transfected HEK293 cells

For “full-length human SPA expressed as fusion protein with VP16 (pSPA) (from UniProt Q8IWL2 21-248)”, the binding was “binds”.
